# According to PubChem BioAssay AID624297 (National Center for Advancing Translational Sciences (NCATS), 2012):
# “And” between values parts separate entries of the source, which are not always exact repeats. Identical values can stand only once. The campaign covered roughly 340,000 compounds. About 6,200 (1.8%) were called active. Inconclusive results, whose numbers are uncertain, are shown with a selection of clear calls. The call rests on the fitted dose curve; in most records, active means well fitted activation curve with a large enough effect; inconclusive means small, poorly fitted or top-dose-only effect; inactive means no such curve, though single readings can be large or run the other way. A potency beside an inconclusive call is a rough fit, not a confirmed value.
# Assay: A quantitative high throughput screen for small molecules that induce DNA re-replication in SW480 colon adenocarcinoma cells. Further: nearly all actives have a fitted effect of over 55% in size. On re-replication activation: % of control where 0% means no effect.
# Conditions: Hoechst DNA content imaging, 48 h; re-replication activation: at 46.1 µM (top of the series) unless noted
# How it was run: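 SW480 cells exposed to compounds for 48 hr at 37 C, 5% CO2, then Hoechst-stained 40 min. Nuclear DNA content imaged by fluorescence scanning (405 nm excitation, 500-530 nm emission); re-replication scored as increased high-intensity nuclei.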
# Potency means the concentration at half of the fitted maximal effect.
SMILES,re-replication activation,Potency
Cn1c2ccccc2c2ncn(CCC3=CCCCC3)c(=O)c21,inactive: 2.35%,–
CC1(C2CC(C(F)(F)F)n3nc(C(=O)O)cc3N2)CC1 (stereo not given),inactive: -1.1%,–
c1ccc2c(-c3cncc4ccccc34)cncc2c1,–,"inconclusive: 18.4 µM [activator, single point]"
COc1ccccc1/C=C/C(=O)N1CCc2cc(OC)c(OC)cc2C1C (stereo not given),inactive: -1.31%,–
O=C(COc1ccc(C(=O)c2ccccc2)cc1)NC1CCCCCC1,inactive: -36.3%,–
O=C(/C=C/c1c(F)cccc1Cl)Nc1ccc(S(=O)(=O)Nc2ncccn2)cc1,–,"inconclusive: 18.4 µM [activator, single point]"
C(=C/c1ccccc1)/CN1CCN(C(c2ccccc2)c2ccccc2)CC1,inactive: 7.39% [at 20.6 µM],–
CN1CCN(CCNC(=O)Cn2c(=O)c3cccn3c3ccc(F)cc32)CC1,inactive: -1.49%,–
COc1ccccc1C(=O)NC(=S)Nc1ccc(S(=O)(=O)N2CCN(C)CC2)cc1,–,"inconclusive: 29.1 µM [activator, single point]"
CCc1nc(N)c(C#N)c(-c2ccc(F)cc2)c1C,inactive: -5.4% [at 9.22 µM],–
O=C(c1c[nH]c2ccccc12)C(F)(F)F,inactive: -4.54%,–
COc1ccc2nc(NC(=O)c3cnccn3)sc2c1,–,"inconclusive: 3.26 µM [activator, full curve]"
CC(=O)c1ccc(COC(=O)c2cc3ccccc3oc2=O)cc1,–,"inconclusive: 3.26 µM [activator, full curve, poor fit]"
Cc1nn(-c2ccc(F)cc2)c(Cl)c1C(=O)NCC1CCCO1 (stereo not given),–,"inconclusive: 5.8 µM [activator, partial curve, poor fit]"
O=c1c(Cc2c(F)cccc2Cl)c(O)ccn1Cc1ccc2c(c1)OCO2,–,"inconclusive: 7.31 µM [activator, partial curve, poor fit]"
COc1ccc(OCC(=O)N(C)CC2COc3ccccc3O2)cc1 (stereo not given),inactive: 18.3%,–
CCN(Cc1ccccc1)S(=O)(=O)c1ccc(C(=O)Nc2nnc(C)o2)cc1,–,"inconclusive: 25.9 µM [activator, single point]"
COCCn1c(SCC(=O)c2c(N)n(C3CC3)c(=O)[nH]c2=O)nc2ccccc21,–,"inconclusive: 4.11 µM [activator, full curve, poor fit]"
CNC(=S)NNC(=O)COc1ccccc1C,–,"inconclusive: 25.9 µM [activator, single point]"
CC1=C(C)/C(=N\OS(=O)(=O)c2ccc(C)cc2)C=CC1=O,–,active: 5.17 µM
COCCCN1CN(S(=O)(=O)c2ccc(C)cc2C)c2nc3ccccc3nc21,inactive: -11.4%,–
O=C(COC(=O)c1ccc(F)cc1Cl)NC(=O)NC1CCCC1,inactive: 0.487%,–
O=C(CN1CCCCC1)N1CCCc2ccccc21,inactive: -6.24%,–

SMILES,re-replication activation,Potency
Nc1nc(NCCCN2CCOCC2)nc(Nc2ccccc2)c1[N+](=O)[O-],–,"inconclusive: 0.164 µM [activator, full curve, poor fit]"
Cc1ccc(NC(=O)COC(=O)C2=NN(c3ccccc3)C(=O)CC2)c(Br)c1,inactive: 1.04%,–
C/C=C1\COC(C(=O)NCc2ccncc2)(C(F)(F)F)C=C1C=C1CCCCC1 (stereo not given),–,"inconclusive: 0.0046 µM [activator, full curve, poor fit]"
O=C1CC(c2ccccc2)Cc2nc(N3CCc4ccccc43)ncc21 (stereo not given),inactive: -8.9%,–
O=C(Nc1cccc(O)c1)c1noc2c1CCCCC2,–,"inconclusive: 7.31 µM [activator, partial curve, poor fit]"
Cc1ccc(/C=N/NC(=S)NC2CCS(=O)(=O)C2)cc1 (stereo not given),–,"inconclusive: 18.4 µM [activator, single point]"
O=S(=O)(Nc1ncccn1)c1cc(Cl)ccc1Cl,–,"inconclusive: 0.0461 µM [activator, full curve, poor fit]"
CC(=O)Nc1ccc(NC(=O)C(C)OC(=O)C2CC(=O)N(CCc3ccccc3)C2)cc1 (stereo not given),–,"inconclusive: 7.31 µM [activator, partial curve, poor fit]"
O=C(Nc1cccc(C(F)(F)F)c1)c1cc2ncc(Br)cn2n1,inactive: -14.1%,–
O=C(c1ccc(Cl)c(S(=O)(=O)N2CCCCC2)c1)N1CCN(Cc2ccccc2)CC1,–,"inconclusive: 18.4 µM [activator, partial curve, poor fit]"
COc1c(C)cc(Br)cc1C(=O)Nc1ccc(Cc2ccncc2)cc1,–,"inconclusive: 29.1 µM [activator, single point]"
Cc1ccc(C(=O)c2sc(Nc3ccccc3)c(C#N)c2N)cc1,–,"inconclusive: 29.1 µM [activator, single point]"
Cc1cc(NCC(c2ccccc2)c2ccccc2)n2ncnc2n1,–,"inconclusive: 6.51 µM [activator, single point]"
Cc1ccc(Nc2c([N+](=O)[O-])c(=O)oc3ccccc23)cc1C,–,"inconclusive: 29.1 µM [activator, single point]"
Cc1ccc(C(=O)Nc2nc(-c3ccccn3)cs2)o1,inactive: 13.9%,–
Cc1ccc(C(C[N+](=O)[O-])n2nc(C)cc2C)cc1 (stereo not given),–,"inconclusive: 16.4 µM [activator, single point]"
CC(C)(C)N(NC(=O)Nc1ccc(Cl)c(Cl)c1)C(=O)c1ccccc1,inactive: -3.33% [at 9.22 µM],–
CCCc1ccc(C(=O)CN2C(=O)C(=O)N(C3CCCC3)C2=O)cc1,–,"inconclusive: 29.1 µM [activator, partial curve, poor fit]"
Cc1c(Cl)cccc1NC(=O)CSC(N)=O,–,"inconclusive: 25.9 µM [activator, single point]"
O=C(N/N=C/c1ccccc1O)c1ccncc1,–,"inconclusive: 5.96 µM [activator, full curve] and inconclusive: 18.4 µM [activator, partial curve, poor fit]"
Cc1cccc2[nH]c3c(N4CCC5(CC4)OCCO5)ncnc3c12,–,"inconclusive: 29.1 µM [activator, single point]"
CCCCn1c(N)c(N(CCC(C)C)C(=O)c2oc3ccc(OCC)cc3c2C)c(=O)[nH]c1=O,–,"inconclusive: 16.4 µM [activator, single point]"
